The values that follow come from patent US20220356256A1.

Sequences of proteins named here, by UniProt entry; tags and fusion partners are left off. Residues count along the entry.
UniProt Q9ULV1, residues 40-161: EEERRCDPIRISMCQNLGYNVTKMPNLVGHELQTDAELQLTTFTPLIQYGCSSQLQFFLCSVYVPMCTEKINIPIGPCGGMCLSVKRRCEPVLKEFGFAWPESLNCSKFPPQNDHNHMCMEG

The target of the test is FZD4 CRD region as a GPI linked domain with a myc tag, stably expressed on CHO cells (UniProt Q9ULV1). Put plainly: IF staining, CHO-FZD4 cells.

No constants are given. Whether binding was seen depends on the method and setting. Some results given as binding are weak or reduced against the parent protein; the word gives no strength.

B1: Fab 5017 (Fab, V domains shown)
VH: EVQLVESGGGLVQPGGSLRLSCAASGFNLYYTDMHWVRQAPGKGLEWVASISLFFGYVSYADSVKGRFTISADTSKNTAYLQMNSLRAEDTAVYYCARYLAMDYWGQGTLVTVSS
VL: DIQMTQSPSSLSASVGDRVTITCRASQSVSSAVAWYQQKPGKAPKLLIYSASSLYSGVPSRFSGSRSGTDFTLTISSLQPEDFATYYCQQAAYHWPPLFTFGQGTKVEIKR
In the case of B1, the binding result is given as “binds”.
